In the supplement of paper PMC6411743:
± gives the standard deviation of the averaged measurements. The list shows a part of the results.

Amino acid sequences for entries named in this document (tags omitted). A change or cut given only in a name is not applied to a line headed by its entry.
UniProt Q9Y223: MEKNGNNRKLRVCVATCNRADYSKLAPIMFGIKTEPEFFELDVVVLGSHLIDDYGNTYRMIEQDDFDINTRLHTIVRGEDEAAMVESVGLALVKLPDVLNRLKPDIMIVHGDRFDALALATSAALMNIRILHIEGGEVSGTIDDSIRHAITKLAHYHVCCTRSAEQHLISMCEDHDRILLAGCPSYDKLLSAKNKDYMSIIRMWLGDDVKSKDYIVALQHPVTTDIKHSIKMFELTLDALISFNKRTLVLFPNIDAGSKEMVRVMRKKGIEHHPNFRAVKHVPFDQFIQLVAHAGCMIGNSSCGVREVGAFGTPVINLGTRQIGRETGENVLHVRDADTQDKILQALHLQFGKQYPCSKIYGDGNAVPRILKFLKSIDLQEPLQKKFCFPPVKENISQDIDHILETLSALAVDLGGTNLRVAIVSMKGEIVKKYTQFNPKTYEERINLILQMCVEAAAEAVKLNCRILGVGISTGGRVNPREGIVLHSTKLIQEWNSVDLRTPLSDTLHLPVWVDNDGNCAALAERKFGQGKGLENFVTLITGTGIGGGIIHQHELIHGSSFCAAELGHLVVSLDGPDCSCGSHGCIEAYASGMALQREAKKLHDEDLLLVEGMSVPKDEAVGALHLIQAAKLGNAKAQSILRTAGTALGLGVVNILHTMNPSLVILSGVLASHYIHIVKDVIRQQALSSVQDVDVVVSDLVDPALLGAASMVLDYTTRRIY
UniProt Q9UQ13: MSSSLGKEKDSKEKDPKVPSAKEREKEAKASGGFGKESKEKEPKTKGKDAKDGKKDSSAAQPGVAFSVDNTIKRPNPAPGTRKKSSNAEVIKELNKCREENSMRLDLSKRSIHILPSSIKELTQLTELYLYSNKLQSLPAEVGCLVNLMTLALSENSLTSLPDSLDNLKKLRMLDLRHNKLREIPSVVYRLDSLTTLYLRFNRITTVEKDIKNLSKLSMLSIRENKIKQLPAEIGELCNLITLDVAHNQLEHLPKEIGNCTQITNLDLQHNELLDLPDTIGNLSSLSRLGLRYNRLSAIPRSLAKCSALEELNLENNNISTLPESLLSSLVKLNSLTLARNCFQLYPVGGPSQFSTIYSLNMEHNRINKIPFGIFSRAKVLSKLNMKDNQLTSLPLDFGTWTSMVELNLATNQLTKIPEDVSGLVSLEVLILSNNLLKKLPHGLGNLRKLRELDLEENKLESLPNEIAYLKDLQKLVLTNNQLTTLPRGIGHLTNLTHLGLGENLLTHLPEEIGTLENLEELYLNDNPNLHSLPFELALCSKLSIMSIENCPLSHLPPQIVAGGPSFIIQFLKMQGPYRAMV
UniProt Q9Y237, whole entry: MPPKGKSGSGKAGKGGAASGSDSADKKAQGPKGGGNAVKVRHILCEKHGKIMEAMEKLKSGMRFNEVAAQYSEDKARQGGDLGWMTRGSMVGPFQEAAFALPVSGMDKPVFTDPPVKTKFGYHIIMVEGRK
UniProt Q9UPT9: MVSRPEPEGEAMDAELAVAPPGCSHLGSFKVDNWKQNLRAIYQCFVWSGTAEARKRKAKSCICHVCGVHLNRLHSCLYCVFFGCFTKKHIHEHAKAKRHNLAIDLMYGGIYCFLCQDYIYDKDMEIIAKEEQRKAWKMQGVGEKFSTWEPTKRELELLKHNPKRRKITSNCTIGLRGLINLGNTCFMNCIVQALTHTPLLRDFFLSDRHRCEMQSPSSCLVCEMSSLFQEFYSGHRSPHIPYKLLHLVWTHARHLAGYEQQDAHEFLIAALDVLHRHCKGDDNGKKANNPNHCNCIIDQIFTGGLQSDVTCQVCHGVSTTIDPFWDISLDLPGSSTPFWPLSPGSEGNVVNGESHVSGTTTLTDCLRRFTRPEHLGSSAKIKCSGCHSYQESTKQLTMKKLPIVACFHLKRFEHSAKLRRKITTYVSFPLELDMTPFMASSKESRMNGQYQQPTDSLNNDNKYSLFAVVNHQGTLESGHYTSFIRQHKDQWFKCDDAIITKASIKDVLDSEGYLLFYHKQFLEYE
UniProt Q9UQR0: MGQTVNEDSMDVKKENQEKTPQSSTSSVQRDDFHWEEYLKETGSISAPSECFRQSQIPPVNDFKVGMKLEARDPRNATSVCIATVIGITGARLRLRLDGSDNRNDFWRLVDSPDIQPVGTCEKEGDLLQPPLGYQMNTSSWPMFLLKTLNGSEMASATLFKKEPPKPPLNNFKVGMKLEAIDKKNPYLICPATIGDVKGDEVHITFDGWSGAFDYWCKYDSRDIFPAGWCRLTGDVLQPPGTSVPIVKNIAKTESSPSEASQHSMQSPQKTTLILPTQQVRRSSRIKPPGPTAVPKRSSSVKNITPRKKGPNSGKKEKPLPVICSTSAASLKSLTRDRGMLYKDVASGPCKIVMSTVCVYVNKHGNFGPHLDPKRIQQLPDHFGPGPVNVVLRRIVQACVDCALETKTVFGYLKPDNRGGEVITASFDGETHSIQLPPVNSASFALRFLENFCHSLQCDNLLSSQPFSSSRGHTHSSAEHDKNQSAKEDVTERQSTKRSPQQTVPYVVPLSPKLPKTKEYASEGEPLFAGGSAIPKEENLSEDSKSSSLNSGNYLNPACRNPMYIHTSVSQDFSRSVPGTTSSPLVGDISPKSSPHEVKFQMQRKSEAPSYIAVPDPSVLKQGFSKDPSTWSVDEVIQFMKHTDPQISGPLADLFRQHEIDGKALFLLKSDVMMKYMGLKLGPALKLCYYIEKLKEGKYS
UniProt Q9Y692: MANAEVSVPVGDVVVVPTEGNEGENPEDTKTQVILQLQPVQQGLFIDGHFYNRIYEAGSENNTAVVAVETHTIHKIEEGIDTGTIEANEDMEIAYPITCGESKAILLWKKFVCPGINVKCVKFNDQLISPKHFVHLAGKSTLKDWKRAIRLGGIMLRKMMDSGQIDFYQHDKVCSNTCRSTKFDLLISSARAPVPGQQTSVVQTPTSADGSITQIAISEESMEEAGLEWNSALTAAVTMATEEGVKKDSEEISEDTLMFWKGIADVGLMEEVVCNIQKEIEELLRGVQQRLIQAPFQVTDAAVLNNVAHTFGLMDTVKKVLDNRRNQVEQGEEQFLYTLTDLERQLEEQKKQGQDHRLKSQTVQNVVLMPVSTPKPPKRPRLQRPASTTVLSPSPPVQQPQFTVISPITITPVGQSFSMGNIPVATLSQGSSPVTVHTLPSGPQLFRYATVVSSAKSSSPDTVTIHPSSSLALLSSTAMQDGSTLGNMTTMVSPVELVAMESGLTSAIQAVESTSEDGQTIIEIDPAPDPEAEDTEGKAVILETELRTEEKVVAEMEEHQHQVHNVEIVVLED
UniProt Q9Y3I1: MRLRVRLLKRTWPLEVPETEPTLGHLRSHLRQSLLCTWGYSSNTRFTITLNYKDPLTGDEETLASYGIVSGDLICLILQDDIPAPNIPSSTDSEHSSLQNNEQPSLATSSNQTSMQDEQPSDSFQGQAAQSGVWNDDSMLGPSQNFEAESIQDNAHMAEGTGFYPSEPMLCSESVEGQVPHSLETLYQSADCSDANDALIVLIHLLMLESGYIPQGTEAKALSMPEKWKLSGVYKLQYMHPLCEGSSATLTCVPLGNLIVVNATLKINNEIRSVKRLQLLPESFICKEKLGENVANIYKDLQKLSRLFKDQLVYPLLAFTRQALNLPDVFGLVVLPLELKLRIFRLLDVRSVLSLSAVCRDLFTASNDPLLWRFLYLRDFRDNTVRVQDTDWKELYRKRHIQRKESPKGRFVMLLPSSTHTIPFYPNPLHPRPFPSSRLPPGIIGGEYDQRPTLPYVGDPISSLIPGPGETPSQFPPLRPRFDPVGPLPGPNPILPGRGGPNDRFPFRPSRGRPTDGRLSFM
UniProt Q9Y217: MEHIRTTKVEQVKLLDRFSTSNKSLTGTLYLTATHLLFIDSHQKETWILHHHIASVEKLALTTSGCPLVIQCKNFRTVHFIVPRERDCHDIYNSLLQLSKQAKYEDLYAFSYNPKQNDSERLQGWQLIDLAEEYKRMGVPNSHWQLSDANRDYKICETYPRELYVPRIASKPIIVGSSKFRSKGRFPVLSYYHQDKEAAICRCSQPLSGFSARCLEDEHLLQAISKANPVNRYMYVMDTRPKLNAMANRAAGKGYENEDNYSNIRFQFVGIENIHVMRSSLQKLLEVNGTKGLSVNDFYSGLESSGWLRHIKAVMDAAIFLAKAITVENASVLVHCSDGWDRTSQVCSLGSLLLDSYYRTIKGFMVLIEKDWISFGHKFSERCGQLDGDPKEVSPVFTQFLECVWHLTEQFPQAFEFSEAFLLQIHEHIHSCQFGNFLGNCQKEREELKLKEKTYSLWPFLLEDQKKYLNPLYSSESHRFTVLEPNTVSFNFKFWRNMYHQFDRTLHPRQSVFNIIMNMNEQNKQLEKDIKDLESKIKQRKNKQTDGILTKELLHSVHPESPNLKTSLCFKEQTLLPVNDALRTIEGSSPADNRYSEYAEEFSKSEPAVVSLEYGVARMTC
UniProt Q9Y394: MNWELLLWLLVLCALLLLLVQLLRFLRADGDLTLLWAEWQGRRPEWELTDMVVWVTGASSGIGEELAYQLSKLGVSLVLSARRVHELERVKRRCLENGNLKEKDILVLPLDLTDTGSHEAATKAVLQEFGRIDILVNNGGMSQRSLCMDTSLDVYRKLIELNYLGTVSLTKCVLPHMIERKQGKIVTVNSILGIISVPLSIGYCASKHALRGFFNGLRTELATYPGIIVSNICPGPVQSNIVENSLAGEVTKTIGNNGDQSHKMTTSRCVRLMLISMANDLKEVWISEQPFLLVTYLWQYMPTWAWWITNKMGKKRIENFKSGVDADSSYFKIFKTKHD
UniProt Q9Y2L9: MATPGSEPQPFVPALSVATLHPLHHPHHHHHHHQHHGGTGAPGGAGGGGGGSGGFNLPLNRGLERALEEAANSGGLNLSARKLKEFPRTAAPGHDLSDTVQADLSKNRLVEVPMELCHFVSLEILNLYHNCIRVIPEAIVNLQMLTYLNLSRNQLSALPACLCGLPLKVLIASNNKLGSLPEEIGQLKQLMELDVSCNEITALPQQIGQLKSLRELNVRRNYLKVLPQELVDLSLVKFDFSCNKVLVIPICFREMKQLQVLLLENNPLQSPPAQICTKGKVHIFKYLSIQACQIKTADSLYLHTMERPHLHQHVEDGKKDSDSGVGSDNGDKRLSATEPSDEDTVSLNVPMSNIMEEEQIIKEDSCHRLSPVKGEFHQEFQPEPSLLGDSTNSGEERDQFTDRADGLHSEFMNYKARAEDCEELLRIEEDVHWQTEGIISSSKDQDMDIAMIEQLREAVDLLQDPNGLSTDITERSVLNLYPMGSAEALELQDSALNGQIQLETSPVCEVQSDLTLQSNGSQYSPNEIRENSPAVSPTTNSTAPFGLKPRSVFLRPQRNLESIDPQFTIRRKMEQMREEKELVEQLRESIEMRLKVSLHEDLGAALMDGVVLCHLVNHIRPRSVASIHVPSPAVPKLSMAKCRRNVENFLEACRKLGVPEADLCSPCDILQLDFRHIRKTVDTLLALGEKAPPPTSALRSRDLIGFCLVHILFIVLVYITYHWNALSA
UniProt Q9Y5K8, whole entry: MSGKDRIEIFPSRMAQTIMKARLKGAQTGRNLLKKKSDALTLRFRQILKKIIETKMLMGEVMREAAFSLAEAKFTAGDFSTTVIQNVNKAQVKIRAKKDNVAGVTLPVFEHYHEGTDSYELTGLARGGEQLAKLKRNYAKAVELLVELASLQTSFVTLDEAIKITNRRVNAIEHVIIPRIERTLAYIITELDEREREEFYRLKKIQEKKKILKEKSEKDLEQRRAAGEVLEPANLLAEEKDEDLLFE
UniProt Q9Y3C8: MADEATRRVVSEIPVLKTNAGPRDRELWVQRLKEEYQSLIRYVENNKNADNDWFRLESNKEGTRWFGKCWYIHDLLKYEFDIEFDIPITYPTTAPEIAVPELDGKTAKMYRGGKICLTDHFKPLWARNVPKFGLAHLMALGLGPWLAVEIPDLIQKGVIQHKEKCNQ
UniProt Q9UMX5: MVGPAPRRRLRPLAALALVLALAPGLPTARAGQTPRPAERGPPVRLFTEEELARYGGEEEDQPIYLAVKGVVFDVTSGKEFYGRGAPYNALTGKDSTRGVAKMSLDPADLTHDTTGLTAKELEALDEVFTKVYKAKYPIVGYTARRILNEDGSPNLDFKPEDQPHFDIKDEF
UniProt Q9Y5J1: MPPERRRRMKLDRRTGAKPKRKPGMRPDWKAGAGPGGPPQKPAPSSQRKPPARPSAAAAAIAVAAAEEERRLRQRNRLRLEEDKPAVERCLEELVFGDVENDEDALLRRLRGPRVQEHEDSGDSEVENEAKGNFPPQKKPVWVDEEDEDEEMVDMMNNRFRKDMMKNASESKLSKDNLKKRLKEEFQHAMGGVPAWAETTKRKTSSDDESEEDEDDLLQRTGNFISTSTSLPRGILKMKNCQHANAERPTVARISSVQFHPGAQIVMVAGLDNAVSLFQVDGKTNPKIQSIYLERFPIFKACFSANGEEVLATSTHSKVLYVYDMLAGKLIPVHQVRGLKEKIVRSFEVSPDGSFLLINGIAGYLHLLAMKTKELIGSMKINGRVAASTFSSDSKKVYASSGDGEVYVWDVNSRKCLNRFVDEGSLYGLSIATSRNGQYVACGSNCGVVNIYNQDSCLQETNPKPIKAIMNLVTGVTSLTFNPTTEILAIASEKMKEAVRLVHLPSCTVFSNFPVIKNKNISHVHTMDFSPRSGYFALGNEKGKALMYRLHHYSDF

Compound: Nc1nc2c(ncn2[C@@H]2O[C@H](COP(=O)(O)OP(=O)(O)OP(=O)(O)O)[C@@H](O)[C@H]2O)c(=O)[nH]1 [guanosine triphosphate]
Experiment: NP40-soluble protein abundance relative to vehicle (solubility fold change) (ratio); higher = more soluble protein in presence of GTP
In short: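 Across three independent experiments, values are fold changes against the detergent-processed vehicle for each replicate, based on vsn-normalised intensities. The samples were Jurkat crude lysate treated with eight concentrations (0.1 to 10 mM) for 10 min at room temperature and then 3 min at 37 °C. Lysate was solubilised with 0.8% NP40 and benzonase, ultracentrifuged, and the supernatant analysed by TMT-labelled LC-MS/MS.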

Target | NP40-soluble protein abundance (concentration: 0.1mM) | NP40-soluble protein abundance (concentration: 0.5mM) | NP40-soluble protein abundance (concentration: 1mM) | NP40-soluble protein abundance (concentration: 2mM) | NP40-soluble protein abundance (concentration: 4mM) | NP40-soluble protein abundance (concentration: 6mM) | NP40-soluble protein abundance (concentration: 8mM) | NP40-soluble protein abundance (concentration: 10mM)
UniProt Q9Y223 and related entries | 1.09 ± 0.082 | 1.07 ± 0.082 | 0.98 ± 0.044 | 1.01 ± 0.097 | 1.01 ± 0.083 | 0.978 ± 0.082 | 0.931 ± 0.047 | 0.933 ± 0.043
MAD1L1 (UniProt Q9Y6D9) | 1.01 ± 0.065 | 0.983 ± 0.068 | 0.997 ± 0.098 | 0.963 ± 0.072 | 0.953 ± 0.082 | 0.948 ± 0.079 | 0.953 ± 0.056 | 0.941 ± 0.064
UniProt Q9UQ13 and related entries | 0.989 ± 0.056 | 0.982 ± 0.034 | 0.973 ± 0.067 | 0.94 ± 0.092 | 0.93 ± 0.09 | 0.943 ± 0.068 | 0.965 ± 0.062 | 0.939 ± 0.11
UniProt Q9Y237 and related entries | 0.844 ± 0.068 | 0.877 ± 0.036 | 0.896 ± 0.053 | 0.893 ± 0.044 | 0.834 ± 0.07 | 0.899 ± 0.072 | 0.878 ± 0.056 | 0.94 ± 0.017
UniProt Q9UPT9 and related entries | 1.15 ± 0.23 | 1.12 ± 0.15 | 0.994 ± 0.16 | 1.03 ± 0.16 | 1.04 ± 0.21 | 1.08 ± 0.15 | 1.01 ± 0.13 | 0.948 ± 0.12
SCML2 (UniProt Q9UQR0) | 1.01 ± 0.051 | 1.06 ± 0.033 | 1.11 ± 0.013 | 1.15 ± 0.045 | 1.16 ± 0.029 | 1.19 ± 0.046 | 1.24 ± 0.087 | 1.22 ± 0.073
UniProt Q9Y2C4 and related entries | 1.2 ± 0.083 | 1.12 ± 0.049 | 1.11 ± 0.083 | 1.14 ± 0.088 | 1.08 ± 0.033 | 1.07 ± 0.081 | 1.01 ± 0.034 | 1.03 ± 0.044
UniProt Q9Y692 and related entries | 1.04 ± 0.061 | 1.08 ± 0.092 | 1.04 ± 0.058 | 1.04 ± 0.1 | 1.06 ± 0.09 | 1.02 ± 0.1 | 1.01 ± 0.057 | 1.03 ± 0.05
UniProt Q9Y3I1 and related entries | 1.04 ± 0.091 | 1.06 ± 0.2 | 0.951 ± 0.14 | 1.02 ± 0.23 | 1.01 ± 0.24 | 1.01 ± 0.21 | 0.921 ± 0.14 | 0.963 ± 0.15
UniProt Q9Y3D9 and related entries | 1.01 ± 0.17 | 1.01 ± 0.19 | 1.61 ± 0.35 | 1.69 ± 0.093 | 1.771 ± 0.00083 | 1.61 ± 0.061 | 1.49 ± 0.28 | 1.73 ± 0.19
MTMR6 (UniProt Q9Y217) | 1.068 ± 0.0063 | 1.02 ± 0.027 | 0.967 ± 0.016 | 0.969 ± 0.01 | 0.93 ± 0.031 | 0.907 ± 0.0098 | 0.947 ± 0.034 | 0.913 ± 0.042
UniProt Q9Y394 and related entries | 1.03 ± 0.059 | 0.984 ± 0.051 | 0.987 ± 0.049 | 0.958 ± 0.067 | 0.969 ± 0.07 | 0.926 ± 0.056 | 0.922 ± 0.061 | 0.895 ± 0.075
RNF114 (UniProt Q9Y508) | 0.95 ± 0.011 | 0.967 ± 0.032 | 0.924 ± 0.041 | 0.91 ± 0.068 | 0.895 ± 0.057 | 0.897 ± 0.056 | 0.876 ± 0.072 | 0.888 ± 0.084
UniProt Q9Y2L9 and related entries | 1.05 ± 0.063 | 1 ± 0.082 | 0.979 ± 0.026 | 1.02 ± 0.072 | 1.02 ± 0.028 | 1.08 ± 0.079 | 1.03 ± 0.067 | 1.01 ± 0.086
TACC3 (UniProt Q9Y6A5) | 0.897 ± 0.018 | 0.905 ± 0.056 | 0.935 ± 0.042 | 0.913 ± 0.081 | 0.887 ± 0.053 | 0.902 ± 0.077 | 0.905 ± 0.052 | 0.953 ± 0.053
UniProt Q9Y6X9 and related entries | 0.982 ± 0.076 | 0.972 ± 0.1 | 0.982 ± 0.083 | 0.989 ± 0.092 | 0.984 ± 0.046 | 0.944 ± 0.038 | 1.05 ± 0.042 | 1.02 ± 0.042
BOLA1 (UniProt Q9Y3E2) | 0.909 ± 0.069 | 0.941 ± 0.075 | 0.943 ± 0.06 | 0.943 ± 0.028 | 0.908 ± 0.073 | 0.933 ± 0.059 | 0.903 ± 0.038 | 1.04 ± 0.055
UniProt Q9UN36 and related entries | 0.95 ± 0.081 | 0.947 ± 0.087 | 0.956 ± 0.076 | 0.924 ± 0.13 | 0.88 ± 0.12 | 0.894 ± 0.11 | 0.878 ± 0.078 | 0.922 ± 0.067
ATP6V1D (UniProt Q9Y5K8) | 1.04 ± 0.016 | 1.06 ± 0.03 | 1.04 ± 0.03 | 1.06 ± 0.022 | 1.056 ± 0.0052 | 1.03 ± 0.05 | 1.02 ± 0.045 | 0.992 ± 0.018
UFC1 (UniProt Q9Y3C8) | 0.8 ± 0.12 | 0.779 ± 0.082 | 0.952 ± 0.14 | 0.953 ± 0.083 | 0.908 ± 0.083 | 0.928 ± 0.078 | 0.819 ± 0.16 | 0.999 ± 0.17
TRPV2 (UniProt Q9Y5S1) | 0.983 ± 0.033 | 1.01 ± 0.011 | 0.984 ± 0.025 | 0.995 ± 0.036 | 0.96 ± 0.036 | 0.982 ± 0.038 | 1.02 ± 0.059 | 0.967 ± 0.031
NENF (UniProt Q9UMX5) | 0.904 ± 0.016 | 0.856 ± 0.031 | 0.946 ± 0.056 | 0.9231 ± 0.0089 | 0.932 ± 0.02 | 0.927 ± 0.063 | 0.941 ± 0.093 | 1.01 ± 0.042
UniProt Q9Y5S9 and related entries | 0.914 ± 0.036 | 0.901 ± 0.056 | 0.955 ± 0.033 | 0.863 ± 0.082 | 0.853 ± 0.044 | 0.863 ± 0.08 | 0.871 ± 0.036 | 0.809 ± 0.048
TMED5 (UniProt Q9Y3A6) | 1.05 ± 0.025 | 0.996 ± 0.023 | 1.01 ± 0.038 | 0.988 ± 0.019 | 0.919 ± 0.032 | 0.925 ± 0.031 | 0.925 ± 0.04 | 0.909 ± 0.078
MRPS33 (UniProt Q9Y291) | 0.992 ± 0.16 | 1.04 ± 0.26 | 1.38 ± 0.51 | 1.48 ± 0.43 | 1.5 ± 0.52 | 1.31 ± 0.4 | 1.25 ± 0.39 | 1.4 ± 0.59
UTP18 (UniProt Q9Y5J1) | 1.06 ± 0.091 | 1.16 ± 0.12 | 1.13 ± 0.091 | 1.24 ± 0.091 | 1.37 ± 0.11 | 1.3 ± 0.044 | 1.37 ± 0.17 | 1.57 ± 0.17

Looked up above.
SCML2 (UniProt Q9UQR0) – NP40-soluble protein abundance (concentration: 2mM): 1.15 ± 0.045
UFC1 (UniProt Q9Y3C8) – NP40-soluble protein abundance (concentration: 1mM): 0.952 ± 0.14
